Results are given in words; binding and its absence hold for the method and conditions named. Binding seen in cells or lysates may run through a third protein. Binding calls can cover weak binding; strength is not graded here. For part of these data: Tags and fused reporters may be left off the sequences shown.
Experiments:
[1] = target: myc-BRAF^WT (UniProt P15056); test: co-IP; HEK293T cotransfected with tagged MITF and one tagged RAF construct; NP40 buffer lysates precipitated overnight at 4 °C with anti-HA, anti-Flag or anti-Myc and protein-G magnetic beads
[2] = target: myc-BRAF^V600E (UniProt P15056); test: as above
[3] = target: BRAF (mouse (endogenous in NRAS-mutated murine melanoma cells)) (UniProt P28028); test: proximity ligation; Duolink PLA on fixed, permeabilized NRAS-mutated murine melanoma cells (ARAF-only cells for ARAF/MITF), antibodies against the endogenous RAF protein and MITF
[4] = target: T1, ARAF (mouse (endogenous in NRAS-mutated murine melanoma cells)) (UniProt P04627); test: as above
T1 sequence: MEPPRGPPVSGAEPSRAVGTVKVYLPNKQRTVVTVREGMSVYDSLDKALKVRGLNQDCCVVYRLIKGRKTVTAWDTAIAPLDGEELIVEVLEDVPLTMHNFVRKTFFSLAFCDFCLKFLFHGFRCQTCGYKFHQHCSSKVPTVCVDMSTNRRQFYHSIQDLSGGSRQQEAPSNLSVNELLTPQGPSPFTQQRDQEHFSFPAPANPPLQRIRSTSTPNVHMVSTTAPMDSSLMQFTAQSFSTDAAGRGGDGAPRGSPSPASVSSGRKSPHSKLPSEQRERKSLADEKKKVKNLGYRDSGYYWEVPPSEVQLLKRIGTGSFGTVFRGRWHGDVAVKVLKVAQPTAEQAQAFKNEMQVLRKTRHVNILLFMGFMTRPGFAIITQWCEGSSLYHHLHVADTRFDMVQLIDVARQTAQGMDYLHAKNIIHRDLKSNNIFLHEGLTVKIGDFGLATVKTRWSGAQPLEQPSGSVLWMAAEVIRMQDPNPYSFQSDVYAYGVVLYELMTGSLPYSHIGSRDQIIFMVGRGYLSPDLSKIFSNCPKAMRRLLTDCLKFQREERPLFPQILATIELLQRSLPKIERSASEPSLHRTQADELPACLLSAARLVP

By UniProt entry, the sequences of proteins in these tests, tags left out. Where a name states a change or a piece, a line headed by the entry shows the natural chain unless it says otherwise. Residues count along the entry.
UniProt P15056: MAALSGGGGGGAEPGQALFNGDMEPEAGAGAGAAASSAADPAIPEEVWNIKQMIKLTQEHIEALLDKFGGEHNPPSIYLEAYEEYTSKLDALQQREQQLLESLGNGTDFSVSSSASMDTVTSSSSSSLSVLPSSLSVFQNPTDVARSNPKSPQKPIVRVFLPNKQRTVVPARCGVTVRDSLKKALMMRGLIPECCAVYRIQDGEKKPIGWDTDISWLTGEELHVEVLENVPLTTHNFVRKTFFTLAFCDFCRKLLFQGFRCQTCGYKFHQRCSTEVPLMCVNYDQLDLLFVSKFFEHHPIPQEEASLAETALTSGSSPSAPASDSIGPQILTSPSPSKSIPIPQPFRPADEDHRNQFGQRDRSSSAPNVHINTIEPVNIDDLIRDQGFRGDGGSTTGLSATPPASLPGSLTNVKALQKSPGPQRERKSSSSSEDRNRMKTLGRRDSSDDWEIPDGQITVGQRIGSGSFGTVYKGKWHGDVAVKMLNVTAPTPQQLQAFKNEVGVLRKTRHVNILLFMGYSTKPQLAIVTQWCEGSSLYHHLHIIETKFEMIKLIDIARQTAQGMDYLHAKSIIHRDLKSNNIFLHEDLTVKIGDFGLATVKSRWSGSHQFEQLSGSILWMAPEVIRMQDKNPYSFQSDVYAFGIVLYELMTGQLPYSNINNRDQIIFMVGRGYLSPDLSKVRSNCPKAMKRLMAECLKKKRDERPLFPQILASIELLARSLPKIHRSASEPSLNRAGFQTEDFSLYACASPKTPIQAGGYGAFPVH
flag-Cter-BRAF: residues 457-717 of P15056
UniProt P28028: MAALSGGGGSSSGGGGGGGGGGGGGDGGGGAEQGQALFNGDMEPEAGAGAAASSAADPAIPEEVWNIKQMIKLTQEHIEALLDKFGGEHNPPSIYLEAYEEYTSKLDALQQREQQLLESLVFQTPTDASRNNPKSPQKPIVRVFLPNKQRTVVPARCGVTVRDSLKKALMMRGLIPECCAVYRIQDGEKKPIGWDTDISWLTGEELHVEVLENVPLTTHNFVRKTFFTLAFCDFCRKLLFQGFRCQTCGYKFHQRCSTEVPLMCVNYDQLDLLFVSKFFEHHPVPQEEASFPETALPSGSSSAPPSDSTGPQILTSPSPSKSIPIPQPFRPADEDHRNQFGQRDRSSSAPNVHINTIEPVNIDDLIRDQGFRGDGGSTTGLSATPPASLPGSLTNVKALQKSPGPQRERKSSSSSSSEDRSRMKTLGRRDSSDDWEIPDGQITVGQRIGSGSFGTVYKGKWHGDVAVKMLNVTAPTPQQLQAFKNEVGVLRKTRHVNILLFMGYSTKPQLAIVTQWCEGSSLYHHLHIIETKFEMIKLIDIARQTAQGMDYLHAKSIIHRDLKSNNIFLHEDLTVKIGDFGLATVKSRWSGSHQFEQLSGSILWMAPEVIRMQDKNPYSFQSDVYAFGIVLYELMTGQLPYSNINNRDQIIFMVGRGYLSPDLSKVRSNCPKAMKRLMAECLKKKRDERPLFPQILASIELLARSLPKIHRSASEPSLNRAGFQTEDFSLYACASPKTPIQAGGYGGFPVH

[5] = target: CRAF (mouse (endogenous in NRAS-mutated murine melanoma cells)) (UniProt Q99N57); test: as above
[6] = target: T1, ARAF (mouse (endogenous in NRAS-mutated murine melanoma cells)); test: co-IP; endogenous proteins; ARAF-only mouse melanoma cell lysates incubated overnight at 4 °C with anti-ARAF antibody and protein-A magnetic beads; blot with anti-MITF
[7] = target: T2, human recombinant flag-ARAF (human) (UniProt P10398); test: co-IP; in vitro: 15 ng human recombinant MITF incubated overnight at 4 °C in NP40 Buffer with 75 ng human recombinant flag-ARAF and anti-flag magnetic beads; both purified
T2 sequence: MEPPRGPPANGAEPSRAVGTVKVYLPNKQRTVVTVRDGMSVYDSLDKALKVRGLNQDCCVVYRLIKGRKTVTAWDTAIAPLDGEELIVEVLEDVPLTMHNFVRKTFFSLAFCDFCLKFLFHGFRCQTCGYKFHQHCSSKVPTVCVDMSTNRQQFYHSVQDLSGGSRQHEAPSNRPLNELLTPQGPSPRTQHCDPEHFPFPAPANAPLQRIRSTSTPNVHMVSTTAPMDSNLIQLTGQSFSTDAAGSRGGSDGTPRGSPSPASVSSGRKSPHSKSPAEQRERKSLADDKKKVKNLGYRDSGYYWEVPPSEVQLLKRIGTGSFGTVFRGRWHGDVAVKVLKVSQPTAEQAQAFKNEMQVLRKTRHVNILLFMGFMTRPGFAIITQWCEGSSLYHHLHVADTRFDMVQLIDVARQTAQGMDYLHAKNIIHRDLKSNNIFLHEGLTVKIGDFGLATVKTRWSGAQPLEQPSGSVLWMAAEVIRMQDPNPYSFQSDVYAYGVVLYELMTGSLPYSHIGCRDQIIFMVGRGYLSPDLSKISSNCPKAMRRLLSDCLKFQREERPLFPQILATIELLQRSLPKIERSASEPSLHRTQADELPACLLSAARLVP

[8] = target: HA-BRAF (UniProt P15056); test: co-IP; HEK293T cotransfected with tagged MITF and one tagged RAF construct; NP40 buffer lysates precipitated overnight at 4 °C with anti-HA, anti-Flag or anti-Myc and protein-G magnetic beads
[9] = target: HA-CRAF (UniProt P04049); test: as above
[10] = target: flag-Cter-BRAF (UniProt P15056); test: as above
[11] = target: T3, HA-ARAF (UniProt P10398); test: as above
T3 sequence: T2 sequence

[12] = target: flag-Cter-BRAF (UniProt P15056); test: co-IP; HEK293T cotransfected with myc-MITF and both HA-Nter-BRAF and flag-Cter-BRAF; lysates precipitated with anti-flag or anti-HA

Measured: binding

HA-MITF (from UniProt O75030-9)
binds: [1] | [2]

Microphtalmia-associated transcription factor (MITF) (from UniProt Q08874-8)
binds: [3] | [4] | [5] | [6]

human recombinant MITF protein
binds: [7]

myc-MITF (from UniProt O75030-9)
binds: [8] | [9] | [10] | [11] | [12]

— article PMC8799692
